No constants are given. Whether binding was seen depends on the method and setting. In cells and extracts the contact can be indirect. Some entries that bind do so weakly or less than the wild type.

The values below come from publication PMC10526676.

The target of this experiment is Sequestosome 1 (human (endogenous in HUVECs)) (UniProt Q13501). In words: co-IP; whole-cell lysates of HUVECs in native lysis buffer with protease inhibitors; specific antibodies 12 h at 4 °C, Protein A+G agarose beads 4 h at 4 °C; Western blot; cells untreated or treated with Neu5Ac (20 mM) for 24 h. In general terms: A western blot detects proteins with antibodies after separation by electrophoresis.

In the case of “Cystine/glutamate anti-porter solute carrier family 3 member 2 (from UniProt P08195 1-529)”, the binding entry was “binds”.
